Reference: US9056999B2, “Ultraviolet-curable aqueous ink, ink cartridge, recording apparatus and recording method” (Fuji Xerox Co., Ltd., priority 2013, dated 2015)
Some entries share one result that the patent states for a list of compounds.

Test: Solubility of thioxanthone compound and tertiary amine compound in water-soluble organic solvent at 25° C.
Conditions: in glycerin

SMILES: CCc1cc(CC)c2sc3ccccc3c(=O)c2c1 [Kayacure DETX-S, 2,4-diethylthioxanthone]
- solubility (25° C.): less than 1 mass %
